# Results from PubChem BioAssay AID1671190 (National Center for Advancing Translational Sciences (NCATS), 2021).
# Amino acid sequences for entries named in this document (tags omitted). A change or cut given only in a name is not applied to a line headed by its entry.
# UniProt P18054: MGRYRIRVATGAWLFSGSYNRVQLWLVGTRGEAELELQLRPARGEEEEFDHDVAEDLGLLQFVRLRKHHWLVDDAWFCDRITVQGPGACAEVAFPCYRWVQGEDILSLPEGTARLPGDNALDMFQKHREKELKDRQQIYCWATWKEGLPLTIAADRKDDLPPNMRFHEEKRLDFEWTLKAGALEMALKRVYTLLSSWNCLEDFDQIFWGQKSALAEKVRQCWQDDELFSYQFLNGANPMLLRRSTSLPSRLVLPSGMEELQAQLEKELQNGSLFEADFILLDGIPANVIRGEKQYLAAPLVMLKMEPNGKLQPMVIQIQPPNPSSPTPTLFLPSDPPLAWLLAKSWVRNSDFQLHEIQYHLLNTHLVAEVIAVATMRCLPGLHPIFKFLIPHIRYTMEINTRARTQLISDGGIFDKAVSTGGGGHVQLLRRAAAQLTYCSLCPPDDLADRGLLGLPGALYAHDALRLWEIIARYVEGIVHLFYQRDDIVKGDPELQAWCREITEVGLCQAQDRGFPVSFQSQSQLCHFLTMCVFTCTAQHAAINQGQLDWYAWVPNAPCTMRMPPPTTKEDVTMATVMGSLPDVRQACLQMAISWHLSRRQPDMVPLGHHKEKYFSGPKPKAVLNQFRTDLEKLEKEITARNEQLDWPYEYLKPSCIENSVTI
# In all, about 580,000 compounds went through this assay and about 6,100 (1.1%) were called active. Inconclusive means that the source gave no clear call. Such entries were picked first, then a sample of the others. Calls come from the whole dose curve; as a rule, active = well fitted inhibition curve with a large enough effect; inconclusive = small, poorly fitted or top-dose-only effect, or another doubt; inactive = no such curve, though single readings can be large or run the other way. Potencies of inconclusive entries are doubtful fits and often do not repeat.
# Biological target: Polyunsaturated fatty acid lipoxygenase ALOX12 (Homo sapiens) (UniProt P18054)
# Test: Primary qHTS assay for inhibitors of human arachidonate 12S-lipoxygenase (ALOX12): Round 2
# Details: purified 12hLO, xylenol orange hydroperoxide absorbance; activity change, negative = inhibition: at 108 µM (top of the series) unless noted
# Outline: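 Hydroperoxide product was detected by ferrous iron/xylenol orange as the 573 to 405 nm absorbance ratio. Arachidonic acid at 40 uM (final) was turned over for 30 min at room temperature by 150 nM human 12hLO, pH 7.0 Hepes buffer, after 15 min compound preincubation.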
# % is set by controls: 0 for no effect and ±100 for the full control effect; potency is the fitted concentration of half-maximal effect.
Structure (SMILES),Potency,"activity change, negative = inhibition"
COc1ccc(-c2noc([C@@H]3C[C@H](NS(=O)(=O)c4ccc(C)cc4)CN3C)n2)cc1,"inconclusive: 44.7 µM [inhibitor, partial curve]",–
CC(C)=C[C@H]1C[C@H](C)[C@H]2CC[C@H](C)c3c(O)c(O[C@H]4OC[C@H](O)[C@@H](O)[C@@H]4O)c(C)c1c32,"inconclusive: 141 µM [inhibitor, single point]",–
CN(CCOc1ccccc1)c1nc(-c2cccnc2)nc2ccccc12,"inconclusive: 141 µM [inhibitor, partial curve, poor fit]",–
O=CNc1cc(-c2ccccc2Oc2ccccc2)cn2c(-c3ccc(F)cc3)cnc12,"inconclusive: 44.7 µM [inhibitor, partial curve, poor fit]",–
O=[N+]([O-])c1ccc(-c2nc3ccc([N+](=O)[O-])cc3[nH]2)cc1,"inconclusive: 2.82 µM [inhibitor, full curve, poor fit]",–
CCCNC(=S)Nc1ccc2nc(-c3ccccn3)c(-c3ccccn3)nc2c1,–,inactive: -27.2%
Cc1c(Br)c(C(F)(F)F)nn1CC(=O)NCc1ccco1,"inconclusive: 126 µM [inhibitor, partial curve, poor fit]",–
CC(C)Nc1ncnc2c1cnn2Cc1ccc(Cl)cc1,"inconclusive: 35.5 µM [inhibitor, single point]",–
O=C(O)C(c1ccccc1)N1C(=O)/C(=C\c2ccc(O)c(O)c2)SC1=S (stereo not given),"inconclusive: 3.98 µM [inhibitor, full curve, poor fit]",–
CCC(=O)Nc1cccc(C2=NOC3(C2)C[C@@H](C(N)=O)N(C(=O)C(c2ccccc2)c2ccccc2)C3)c1 (stereo not given in full),"inconclusive: 35.5 µM [inhibitor, partial curve, poor fit]",–
Cc1ccc(C)c(N2CN(Cc3ccco3)CNC2=S)c1,"inconclusive: 44.7 µM [inhibitor, partial curve, poor fit]",–
Nc1ccccc1-c1nc2ccccc2c(=O)o1,"inconclusive: 1.78 µM [inhibitor, full curve, poor fit]",–
NNc1ncnc2ccc([N+](=O)[O-])cc12,"inconclusive: 35.5 µM [inhibitor, single point]",–
O=C(CSc1nc2cc(S(=O)(=O)N3CCOCC3)ccc2o1)NC12CC3CC(CC(C3)C1)C2,"inconclusive: 44.7 µM [inhibitor, partial curve]",–
O=C(c1ccncc1)N1CCN(C(=O)c2ccncc2)CC1,–,inactive: 16.5%
CN(Cc1ccccc1)C(=O)C[C@@H]1O[C@H](CNC(=O)C2CC2)[C@@H](O)[C@H]1O,"inconclusive: 31.6 µM [inhibitor, single point]",–
Cc1ccc(C)c(-c2csc(Nc3ncccn3)n2)c1,"inconclusive: 100 µM [inhibitor, partial curve, poor fit]",–
CCC(=O)N(CCC(c1ccccc1)c1ccc2c(c1)OCO2)Cc1ccc(OC(C)C)cc1 (stereo not given),"inconclusive: 56.2 µM [inhibitor, partial curve, poor fit]",–
Cc1cc(C)cc(NS(=O)(=O)c2ccc3c(c2)c(=O)n(C)c(=O)n3C)c1,–,inactive: 13.5%
O=C1NC(=O)/C(=C/c2ccc(N3CCOCC3)o2)N1,"inconclusive: 14.1 µM [inhibitor, partial curve, poor fit]",–
O=C(c1cc2ccccc2[nH]1)N1C[C@@H](CO)[C@H](c2nc(C3CC3)no2)C1,"inconclusive: 39.8 µM [inhibitor, partial curve, poor fit]",–
COc1ccc(NC(=O)c2ncoc2-c2cccc(Cl)c2)c(OC)c1,–,inactive: 7.23%

Structure (SMILES),Potency,"activity change, negative = inhibition"
CCOC(=O)C(=O)Cc1cccnn1,–,inactive: -16.4%
CC1=Nc2ccccc2/C1=C/c1sc(=S)n(-c2cccc(C(=O)O)c2)c1O,"inconclusive: 44.7 µM [inhibitor, partial curve, poor fit]",–
CCn1cc(C(=O)NC(C)C)c(=O)c2cc(F)c(N3CCN(C(=O)c4ccco4)CC3)cc21,–,inactive: -7.38%
C=C(C)CNC(=S)N/N=C\c1ccc2c(c1)OCO2,"inconclusive: 39.8 µM [inhibitor, partial curve, poor fit]",–
N#C/C(=C/c1ccc(-c2ccccc2F)o1)c1nc2ccccc2[nH]1,"inconclusive: 44.7 µM [inhibitor, partial curve, poor fit]",–
CN(C)CCOc1ccc(-c2c(-c3ccsc3)sc3ccccc23)cc1,"inconclusive: 89.1 µM [inhibitor, partial curve, poor fit]",–
O=C(/C=C/c1ccc(Br)cc1)c1ccc(O)cc1,"inconclusive: 112 µM [inhibitor, single point]",–
CCc1cccc(C)c1NC(=S)NCc1ccc2c(c1)cc(C)n2C,"inconclusive: 39.8 µM [inhibitor, partial curve, poor fit]",–
CCCN(C(=O)Cn1cnc2onc(-c3ccc(F)cc3)c2c1=O)c1cccc(Cl)c1,–,inactive: -25.3%
CCN(CC)c1ccc(NC(=O)CN2CCN(CC(=O)Nc3ccc(F)cc3)CC2)cc1,–,inactive: -17.1%
CC1CSc2nc3sc4c(c3c(=O)n21)CCCC4 (stereo not given),"inconclusive: 44.7 µM [inhibitor, partial curve, poor fit]",–
CCC(CC)C(=O)Nc1ccc(N(C)C)cc1,"inconclusive: 7.94 µM [inhibitor, full curve, poor fit]",–
Cc1cc(N2CCN(c3ccccc3)CC2)nc2ccccc12,"inconclusive: 17.8 µM [inhibitor, single point]",–
CC1=C[C@@H](CN2CCC(C(N)=O)CC2)[C@H](C(C)C)C[C@H]1Cc1nnc(-c2ccc(N(C)C)cc2)o1,–,inactive: 48%
CCC(=O)c1ccc(OC(=O)c2cc(Br)ccc2Cl)cc1,"inconclusive: 44.7 µM [inhibitor, partial curve, poor fit]",–
CCCn1c(CN2CCC(C)CC2)nc2c1c(=O)n(C)c(=O)n2C,–,inactive: 12.9%
Cc1cccc(Nc2nc(NCc3ccc(Cl)cc3)nc(N)c2[N+](=O)[O-])c1,"inconclusive: 35.5 µM [inhibitor, single point]",–
COc1ccc(C(=O)Nc2ccc(CN3CCOCC3)cc2)cc1Br,"inconclusive: 44.7 µM [inhibitor, partial curve, poor fit]",–
CSc1ccc(NC(=O)Nc2cc(F)ccc2F)cc1,"inconclusive: 35.5 µM [inhibitor, partial curve, poor fit]",–
O=C(CNC(=O)C1CCC(CNS(=O)(=O)c2ccc(Cl)cc2)CC1)NCCO (stereo not given),–,inactive: -1.04%
CSC1=N/C(=C\c2ccc3c(c2)OCO3)C(=O)S1,"inconclusive: 35.5 µM [inhibitor, partial curve, poor fit]",–
CC(=O)NCCCNC(=S)NCCCN(Cc1ccc(Cl)cc1)c1ccc(Br)cn1,"inconclusive: 50.1 µM [inhibitor, partial curve, poor fit]",–

Structure (SMILES),Potency,"activity change, negative = inhibition"
O=C(CCl)Nc1sccc1C(=O)c1ccccc1,–,inactive: -14.2%
Nc1nc(COC(=O)c2ccccc2Cl)nc2ccccc12,–,inactive: -0.656%
Cc1ccc(C(=O)c2cn(CC(=O)Nc3ccc(C)cc3Cl)c3nc(C)ccc3c2=O)cc1,–,inactive: -9.23%
CS(=O)(=O)c1ccc2nc(NC(=O)c3ccc(Cl)nc3)sc2c1,"inconclusive: 10 µM [inhibitor, partial curve, poor fit]",–
COc1ccc(NC(=O)C2(C)CCN2Cc2cccc(OC)c2OC)cc1OC (stereo not given),–,inactive: 3.45%
CCN(CC)S(=O)(=O)c1ccc(OC(C)C)c(NC(=O)c2ccc(OC(F)F)c(OC)c2)c1,"inconclusive: 79.4 µM [inhibitor, partial curve, poor fit]",–
COc1ccccc1CC(=O)N1CC[C@@H](NC(=O)c2cnccn2)[C@H](O)C1,–,inactive: 7.96%
C/C=C/c1ccc2oc(-c3ccc(O)cc3)c(C)c2c1,"inconclusive: 89.1 µM [inhibitor, single point]",–
O=C(COc1cccc(Br)c1)N/N=C1\CCSC1,–,inactive: 12.2%
O=C1CC(N(O)c2ccccc2)C(=O)N1Cc1ccccc1 (stereo not given),"inconclusive: 50.1 µM [inhibitor, partial curve]",–
CCOC(=O)CCNC(=O)c1ccc2nc(C3CCCCC3)oc2c1,"inconclusive: 0.224 µM [inhibitor, full curve, poor fit]",–
CCN(CC)C(=O)CNC(=O)c1nn(-c2ccc(OC)c(Cl)c2)c(=O)c2ccccc12,"inconclusive: 44.7 µM [inhibitor, partial curve, poor fit]",–
COCCNc1nnc(Cc2ccc(OC)c(OC)c2)c(=O)[nH]1,–,inactive: 6.21%
CC(NC(=S)NNC(=O)CSCc1ccccc1)c1ccccc1 (stereo not given),"inconclusive: 44.7 µM [inhibitor, partial curve, poor fit]",–
CCOc1cc(CN2CCc3c([nH]c4ccccc34)C2)ccc1OC,"inconclusive: 2.24 µM [inhibitor, full curve, poor fit]",–
O=C(Nc1ccc(N2CCCCCC2)c(C(=O)O)c1)c1ccccc1Cl,"inconclusive: 39.8 µM [inhibitor, partial curve]",–
COCCc1noc([C@@H]2CN(Cc3ccc4[nH]ccc4c3)C[C@H]2CO)n1,–,inactive: 33.6%
COc1ccc(NC(=O)CNc2cccc(S(=O)(=O)N3CCCCCC3)c2)c([N+](=O)[O-])c1,–,inactive: -4.59%
CC(=O)Nc1ccc(NC(=S)NC(=O)c2ccc(Cl)cc2)cc1,active: 5.62 µM,–
Cc1cc(C)cc(-n2c(-c3ccccc3)c(C)n3c4c(=O)n(C)c(=O)n(C)c4nc23)c1,–,inconclusive: -30.2% [inhibitor]
COc1ccc(N2C(=O)CC(SCc3ccc(Cl)cc3)C2=O)cc1 (stereo not given),"inconclusive: 100 µM [inhibitor, single point]",–

# An excerpt of these results, tab-delimited.
Structure (SMILES)	Potency	activity change, negative = inhibition
O=C(CSc1nc2cc(S(=O)(=O)N3CCOCC3)ccc2o1)NC12CC3CC(CC(C3)C1)C2	inconclusive: 44.7 µM [inhibitor, partial curve]	–
O=C(c1ccncc1)N1CCN(C(=O)c2ccncc2)CC1	–	inactive: 16.5%

# At a glance, part of the list above:
Structure (SMILES),Potency,"activity change, negative = inhibition"
CS(=O)(=O)c1ccc2nc(NC(=O)c3ccc(Cl)nc3)sc2c1,"inconclusive: 10 µM [inhibitor, partial curve, poor fit]",–
COc1ccc(NC(=O)C2(C)CCN2Cc2cccc(OC)c2OC)cc1OC (stereo not given),–,inactive: 3.45%
